Measurements from patent US20240425574A1, “ANTI-PDGF-B ANTIBODIES AND PHARMACEUTICAL COMPOSITION THEREOF” (Regeneron Pharmaceuticals, Inc., priority 2021, published 2024).

Key:
Human PDGF-DD = conditions: read-out: IC50 Calcium Flux, PDGF-DD; PASMC; 1 nM PDGF-DD constant
Procedure: Upon reaching 100% confluency within each well, PDGF driven calcium flux was assessed via the FLIPR® Calcium 5 Assay Kit on the FLIPR Tetra System (Molecular Devices) following the manufacturer's protocol. In brief, complete media was replaced with 50 μL assay media (DMEM-0.1% BSA-1× Penicillin/Streptomycin/L-Glutamine). The Calcium 5 dye was then reconstituted in the supplied buffer in the presence of probenecid. […] Human PDGF-AA, PDGF-BB and PDGF-DD serial dilutions and inhibitory constants were generated on separate dosing plates. A 0.5 nM concentration of PDGF-BB, 1 nM concentration of PDGF-DD and a 3 nM concentration of PDGF-AA were chosen as constants to assess antibody and small molecule inhibition. […] Antibodies were pre-incubated with PDGF proteins for 30 minutes before addition onto the cells via the FLIPR tetra system. […] These calcium traces were analyzed for their Max-Min values using the SoftMax Pro Software (Molecular Devices).

PDGF-AA = conditions: read-out: IC50 Proliferation, PDGF-AA; PASMC; IncuCyte cell confluence at day 6
PDGF-DD = conditions: read-out: IC50 Proliferation, PDGF-DD; PASMC; IncuCyte cell confluence at day 6

Cc1ccc(NC(=O)c2ccc(CN3CCN(C)CC3)cc2)cc1Nc1nccc(-c2cccnc2)n1 [Imatinib]
IC50 (Human PDGF-DD): 660 nM
IC50 (PDGF-AA): 110 nM
IC50 (PDGF-DD): 320 nM
